US7488721B2, “Real time methylumbelliferone-based assay” (McMaster University, priority 2004, dated 2009)
The match of structure and compound is tentative.

The chains behind the UniProt entries cited, without tags or fusion partners. Residues count along the entry.
UniProt P06865, 89-529 limits assumed: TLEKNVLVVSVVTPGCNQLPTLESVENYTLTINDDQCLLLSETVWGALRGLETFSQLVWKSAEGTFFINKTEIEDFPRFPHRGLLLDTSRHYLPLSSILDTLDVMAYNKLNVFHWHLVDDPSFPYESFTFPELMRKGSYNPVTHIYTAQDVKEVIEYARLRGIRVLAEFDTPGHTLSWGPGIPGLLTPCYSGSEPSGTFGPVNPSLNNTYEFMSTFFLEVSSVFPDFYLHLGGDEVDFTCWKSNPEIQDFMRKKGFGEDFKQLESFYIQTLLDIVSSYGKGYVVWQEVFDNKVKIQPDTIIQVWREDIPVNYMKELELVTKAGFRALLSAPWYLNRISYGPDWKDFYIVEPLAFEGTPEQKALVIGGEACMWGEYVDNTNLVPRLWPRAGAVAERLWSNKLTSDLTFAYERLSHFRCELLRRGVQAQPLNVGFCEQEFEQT
UniProt P06865, 23-74 partner limits assumed: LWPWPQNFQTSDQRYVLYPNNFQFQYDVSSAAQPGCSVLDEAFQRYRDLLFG
UniProt P07686, 122-311 limits assumed: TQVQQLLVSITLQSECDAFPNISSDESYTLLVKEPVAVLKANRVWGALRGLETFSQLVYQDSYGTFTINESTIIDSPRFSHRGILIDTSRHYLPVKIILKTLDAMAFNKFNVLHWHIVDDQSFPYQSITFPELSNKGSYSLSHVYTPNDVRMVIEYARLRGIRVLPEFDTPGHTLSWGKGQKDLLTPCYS
UniProt P07686, 315-556 limits assumed: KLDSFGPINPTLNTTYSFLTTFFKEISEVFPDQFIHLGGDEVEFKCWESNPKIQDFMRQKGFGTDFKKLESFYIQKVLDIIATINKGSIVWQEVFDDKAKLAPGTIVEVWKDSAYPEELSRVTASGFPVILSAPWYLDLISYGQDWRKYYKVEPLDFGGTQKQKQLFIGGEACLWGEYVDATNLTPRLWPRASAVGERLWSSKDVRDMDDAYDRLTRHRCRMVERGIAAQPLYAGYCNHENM
UniProt P07686, 50-107 partner limits assumed: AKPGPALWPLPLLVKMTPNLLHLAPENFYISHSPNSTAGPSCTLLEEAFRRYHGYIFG

Key:
[1] = system: hexosaminidase activity in ISD cells; experiment: Endpoint MUG/MUP assay of ISD cells treated with screen hits (Example 5); conditions: ISD cells grown 2-5 days with compound
[2] = target: Human N-acetyl-β-hexosaminidase A (HexA) (Homo sapiens, UniProt P06865+P07686); conditions: purified HexA 100 ng/mL, MUG 58.8 μM, pH 4.3

**Q.** How did the “enhancement of hexosaminidase activity” value [1] turn out when `O=C(C(C(=O)N1CCc2ccccc21)c1ccccc1)N1CCc2ccccc21` was run?
**A.** Its value is “good enhancement of hexosaminidase activity”.

**Q.** And the IC50 [2]?
**A.** Its IC50 is 34 µM.
